Assay results from article doi:10.1101/296376.
These are yes or no findings as the source states them, for the method shown. Some entries that bind do so weakly or less than the wild type.

By UniProt entry, the sequences of proteins in these tests, tags left out. Residues count along the entry.
EGFP-Myo19-tail (aa 824-970) (Q96H55, residues 824-970): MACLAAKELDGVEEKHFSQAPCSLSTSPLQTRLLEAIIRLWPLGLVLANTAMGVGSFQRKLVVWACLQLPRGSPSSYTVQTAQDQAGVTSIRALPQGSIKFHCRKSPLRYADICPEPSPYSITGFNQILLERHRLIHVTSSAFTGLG
EGFP-Myo19 N-tail (aa 824-897) (Q96H55, residues 824-897): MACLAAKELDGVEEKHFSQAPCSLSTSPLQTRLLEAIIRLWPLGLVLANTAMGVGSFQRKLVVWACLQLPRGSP
EGFP-Myo19 C-tail (aa 898-970) (Q96H55, residues 898-970): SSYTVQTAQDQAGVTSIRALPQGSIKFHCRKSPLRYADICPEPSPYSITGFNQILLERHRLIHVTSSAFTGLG

Tests used:
Test in all cases: retargeting to early endosomes
[1] = biological target: T1, mCherry-Miro-1-aa1-408-2xFYVE (human) (UniProt Q8IXI2)
T1 sequence: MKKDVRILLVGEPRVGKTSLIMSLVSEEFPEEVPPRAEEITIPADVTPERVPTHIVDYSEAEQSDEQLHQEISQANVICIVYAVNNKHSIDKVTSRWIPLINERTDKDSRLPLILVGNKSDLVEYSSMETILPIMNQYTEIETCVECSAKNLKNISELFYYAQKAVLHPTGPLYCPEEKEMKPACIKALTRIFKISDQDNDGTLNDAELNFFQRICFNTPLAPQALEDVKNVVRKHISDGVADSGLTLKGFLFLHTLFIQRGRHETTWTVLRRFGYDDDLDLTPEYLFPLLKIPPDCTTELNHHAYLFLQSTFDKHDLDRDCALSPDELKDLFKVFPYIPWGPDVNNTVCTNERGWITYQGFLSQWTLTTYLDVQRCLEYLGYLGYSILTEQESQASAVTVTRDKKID

[2] = biological target: mCherry-Miro-1-ΔTM-2xFYVE (human) (UniProt Q8IXI2)
[3] = biological target: T2, mCherry-Miro1(T18N)ΔTM-EE (human) (UniProt Q8IXI2)
T2 sequence: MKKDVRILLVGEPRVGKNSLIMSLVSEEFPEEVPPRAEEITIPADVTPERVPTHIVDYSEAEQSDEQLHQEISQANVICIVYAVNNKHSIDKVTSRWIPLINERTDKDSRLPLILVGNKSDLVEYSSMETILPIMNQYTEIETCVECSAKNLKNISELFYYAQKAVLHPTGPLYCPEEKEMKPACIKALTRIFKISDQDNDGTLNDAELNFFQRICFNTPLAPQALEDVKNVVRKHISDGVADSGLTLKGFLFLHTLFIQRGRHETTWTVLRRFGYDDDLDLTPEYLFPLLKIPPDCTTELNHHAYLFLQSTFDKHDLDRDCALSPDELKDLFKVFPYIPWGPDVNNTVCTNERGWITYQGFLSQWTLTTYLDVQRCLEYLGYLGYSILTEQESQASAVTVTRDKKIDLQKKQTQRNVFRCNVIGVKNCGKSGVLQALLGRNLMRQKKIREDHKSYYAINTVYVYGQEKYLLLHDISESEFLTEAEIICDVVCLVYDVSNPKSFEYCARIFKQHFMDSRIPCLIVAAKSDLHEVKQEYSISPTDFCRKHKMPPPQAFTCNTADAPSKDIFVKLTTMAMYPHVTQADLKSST

Substance	binding [1]	binding [2]	binding [3]
EGFP-Myo19-tail (aa 824-970) (from UniProt Q96H55 824-970) (domain or fragment)	binds	binds	no binding
EGFP-Myo19 N-tail (aa 824-897) (from UniProt Q96H55 824-897) (domain or fragment)		no binding	
EGFP-Myo19 C-tail (aa 898-970) (from UniProt Q96H55 898-970) (domain or fragment)	binds	binds	no binding
